These are literature values, as cited in publication PMC10741027, “Risk Assessment of Psychotropic Drugs on Mitochondrial Function Using In Vitro Assays” (Biomedicines, 2023).

Series [1] concerns CI-linked respiration. Particulars: read-out: CI-linked respiration IC50; pig brain mitochondria; cited from earlier work.
Series [2] has as its system CII-linked respiration. Particulars: read-out: CII-linked respiration IC50; isolated pig brain mitochondria; cited from earlier work.

Structures are written as SMILES.

With `CN1c2ccccc2C(NCCCCCCC(=O)O)c2ccc(Cl)cc2S1(=O)=O` (centres unmarked) [Tianeptine], the figures for the IC50 in series [1] and in series [2] were 88.9 µM and 67.4 µM, respectively.
